# Data from PubChem BioAssay AID2685 (National Center for Advancing Translational Sciences (NCATS), 2010).
# Hit rate of the full screen: of about 320,000 compounds, about 2,100 (0.66%) were called active. This list was built around the results that the source calls inconclusive (neither active nor inactive); the mix of calls is not that of the screen. Calls follow the shape of the dose curve; as a rule, active = well fitted inhibition curve with a large enough effect in the signal ratio, with a control signal flat (not every such curve was filed as active); inconclusive = small, poorly fitted or top-dose-only effect, or effect the other way, or a change in a side signal; inactive = flat fitted curve, though single readings scatter; the % refers to the signal ratio. A potency beside an inconclusive call is a rough fit, not a confirmed value.
# Assay: qHTS Assay for Lipid Storage Modulators in Drosophila S3 Cells
# Conditions: BODIPY lipid droplet fluorescence, 18-24 h, cells fed with added oleic acid; lipid storage change, negative = inhibition: at 46.1 µM (top of the series) unless noted
# Method in brief: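 Drosophila S3 cells got compounds at several concentrations plus oleic acid (400 uM solution). Laser-scanning cytometry with 488 nm excitation read lipid droplets at 500-530 nm and cells at 575-640 nm. Percent activity was relative to 20 uM Triacsin C.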
# % is scaled to controls: 0 for no effect and ±100 for the full control effect; potency is read from the fitted curve at half-maximal effect.
Compound,Potency,"lipid storage change, negative = inhibition"
Cc1ccccc1-c1noc(C23CC4CC(CC(C4)C2)C3)n1,"inconclusive: 0.517 µM [falling, full curve]",
Cc1cc(Cl)ccc1OCC(=O)NNC(=O)c1cccnc1,"inconclusive: 29.1 µM [falling, single point]",
Cc1nc2nc(C)c(CCC(=O)O)c(C)n2n1,,inconclusive: -1.03%
c1nc(N2CCC3(CC2)OCCO3)c2c3c(sc2n1)CCCC3,,inconclusive: 13.9%
COc1ccc(-n2c(Cn3c(=O)sc4ccccc43)nnc2SCC(N)=O)cc1,"inconclusive: 0.13 µM [falling, full curve, poor fit]",
CCN1C(=O)[C@H]2[C@@H](c3ccc(C)cc3)N3C(=O)N(c4ccc(C)cc4)C(=O)[C@@]3(Cc3ccccc3)[C@H]2C1=O,,inconclusive: -35.7%
CC(C)=CCN1CCN(Cc2cnc(N3CCCC3)s2)CC1CCO (stereo not given),,inconclusive: 33.8%
O=C1CCC(/C=C/c2ccccc2)=NN1Cc1ccc(Cl)c(Cl)c1,,inconclusive: 60.9%
CC(C)(C)c1ccc(C(=O)NCCC(=O)NC2=NCCS2)cc1,"inconclusive: 1.84 µM [falling, partial curve, poor fit]",
O=C(Nc1nc2ccc(Cl)cc2s1)[C@@H]1CCCN1C(=O)c1cccs1,,inconclusive: 16.6%
CCOc1ccc(NC(=O)CN2CCN(S(=O)(=O)c3ccc(Cl)cc3)CC2)cc1,,inconclusive: 19.2%
Cc1cc(C)cc(OCC(=O)OCC(=O)NCc2ccco2)c1,active: 23.1 µM,
Cc1cc(CN(C)C(=O)CCc2nnc(Cc3cccc(C(F)(F)F)c3)o2)on1,,inconclusive: -11.7%
N#CC1=C(N)OC2=C(C(=O)CCC2)C1c1ccncc1 (stereo not given),"inconclusive: 18.4 µM [activator, single point]",
NS(=O)(=O)c1ccc(NC(=O)c2ccc3c(c2)OCO3)cc1,,inconclusive: 1.01%
O=C(Nc1cccc2c1CCCC2)c1ccccc1F,"inconclusive: 29.1 µM [activator, single point]",
CC1CCCN(C(=O)/C(=C/c2ccco2)NC(=O)c2ccccc2)C1 (stereo not given),,inconclusive: -60.9%
CCN1/C(=C/c2cc[n+](C)cc2)C=Cc2cc(C)ccc21,,inconclusive: -97.1%
CC(C)(C)C(=O)CC1(O)C(=O)N(Cc2ccc(Cl)cc2)c2ccccc21 (stereo not given),,inactive
CN(C)S(=O)(=O)n1cc(/C=C(\NC(=O)c2ccccc2)C(=O)N2CCOCC2)c2ccccc21,"inconclusive: 29.1 µM [rising, single point]",
COc1ccc(S(=O)(=O)N2CCN(CC(O)COc3ccc(C#N)cc3)CC2)cc1OC (stereo not given),,inconclusive: -1.97%
CCCC(C)NC(=O)CN(c1ccc2c(c1)OCCO2)S(=O)(=O)c1ccccc1 (stereo not given),"inconclusive: 29.1 µM [activator, single point]",
CCN(CC1COc2ccccc2O1)C(=O)c1ccc(Cl)c(S(=O)(=O)N2CC(C)OC(C)C2)c1 (stereo not given),,inconclusive
COc1cccc(Sc2ccccc2/C=N/NC(N)=O)c1,"inconclusive: 1.46 µM [rising, full curve]",
Cc1ccc(NNC(=O)c2cccs2)cc1Cl,,inconclusive: -32.4%

# A different layout for part of the listing above:
Compound | Potency | lipid storage change, negative = inhibition
Cc1cc(Cl)ccc1OCC(=O)NNC(=O)c1cccnc1 | inconclusive: 29.1 µM [falling, single point] | 
CCOc1ccc(NC(=O)CN2CCN(S(=O)(=O)c3ccc(Cl)cc3)CC2)cc1 |  | inconclusive: 19.2%
N#CC1=C(N)OC2=C(C(=O)CCC2)C1c1ccncc1 (stereo not given) | inconclusive: 18.4 µM [activator, single point] | 
CCN1/C(=C/c2cc[n+](C)cc2)C=Cc2cc(C)ccc21 |  | inconclusive: -97.1%

# Further compounds.

Compound,Potency,"lipid storage change, negative = inhibition"
Cc1ccc(C2=NN(C(=O)CNCCO)C(c3cccs3)C2)cc1 (stereo not given),"inconclusive: 29.1 µM [activator, partial curve]",
O=C(Nc1ccccc1)C1=C[C@H](c2ccccc2)C[C@H](OCc2ccc(CO)cc2)O1,,inconclusive: 9.46%
Clc1ccc(-c2nnc(CNC3CC3)o2)cc1,,inactive
c1ccc(Cc2noc(CN3CCN(Cc4ccc5c(c4)OCO5)CC3)n2)cc1,,inconclusive: 25.9%
CCOc1ccc(S(=O)(=O)/N=C(\N)c2ccccc2)cc1,,inconclusive: 2.54%
CC(C)/C=C/C(=O)N1CCCC(N2CCN(c3ccccc3F)CC2)C1 (stereo not given),,inconclusive: 10%
CC(c1ccccc1)n1c(Br)nc2c1c(=O)[nH]c(=O)n2C (stereo not given),,inconclusive: 24.1%
O=C(CNC(=O)c1sc2ccccc2c1Cl)NCc1ccccc1,"inconclusive: 16.4 µM [falling, partial curve, poor fit]",
Cc1ccc(-n2c(C)cc(C(=O)COc3c(CO)cc(F)cc3CO)c2C)cc1C,active: 8.2 µM,
C=CCNC(=O)[C@@H]1CSC2c3ccc(OC)c(OC)c3C(=O)N21 (stereo not given in full),,inconclusive: 3.94%
Cc1c(CC(=O)N2CCN(C(=O)C3COc4ccccc4O3)CC2)c(=O)oc2cc(O)c(Cl)cc12 (stereo not given),"inconclusive: 29.1 µM [falling, single point]",
CCN(CC)C(=S)SCC(=O)Nc1nc(-c2ccccc2)c(-c2ccccc2)o1,,inconclusive: -33.8%
CNCCOc1nc(N2CCOCC2)nc(C)c1[N+](=O)[O-],,inconclusive: 5.98%
CCOc1ccc(CCNC(=O)c2sc3nc4n(c(=O)c3c2C)CCC4)cc1OCC,,inconclusive: -34.1%
CC(C)(C)NC(=O)CN(C(=O)CSc1nnc(COc2ccccc2)o1)c1cccc(F)c1,,inconclusive: -96.3%
COc1ccc2c(CC(=O)OCC(=O)Nc3ccc(C)cc3)coc2c1,,inconclusive: 15.3%
Cc1cccc2cc3c(N)c(C(=O)Nc4ccc(N5CCOCC5)cc4)sc3nc12,,inactive
Cc1ccccc1OCc1nnc(SC(C)C(=O)O)n1Cc1ccccc1 (stereo not given),,inconclusive: 32.2%
COC(=O)[C@@H]1OC(=O)[C@H]2O[C@@]23[C@@]1(C)CC[C@@H]1[C@@]2(C)C=CC(=O)OC(C)(C)[C@@H]2CC(=O)[C@]13C,"inconclusive: 1.84 µM [activator, full curve]",
CCOC(=O)c1c(C)[nH]c(C(=O)OCC(=O)c2ccc(OC)cc2OC)c1C,,inconclusive: 36.8%
CCn1cc(CN2CCN(Cc3ccsc3)C(CCO)C2)cn1 (stereo not given),,inconclusive: 32.2%
COc1ccccc1NS(=O)(=O)c1c(C)nc2sccn2c1=O,"inconclusive: 20.6 µM [activator, partial curve, poor fit]",
CCOC(=O)C1CCCN(C(=O)Cc2c(C(=O)O)[nH]c3ccccc23)C1 (stereo not given),,inconclusive: -5.99%
O=C(Cn1c2ccc(F)cc2c2nc3n(c(=O)c21)CCS3)Nc1ccccc1F,"inconclusive: 29.1 µM [cytotoxic, single point]",
CC(=O)Cn1nnc2sc3c(c2c1=O)CCC(C(C)(C)C)C3 (stereo not given),,inconclusive: 17.3%

Compound,Potency,"lipid storage change, negative = inhibition"
Cc1ccc(NC(=O)CN(C)C(=O)COC(=O)c2nc3nccc(C)n3n2)cc1,"inconclusive: 29.1 µM [activator, single point]",
CCOC(=O)CSc1nc2c(c(=O)n(C)c(=O)n2C)n1Cc1ccccc1F,,inconclusive: -5.95% [at 9.22 µM]
CCC(CC)C(=O)NCc1ccccc1OC,,inconclusive: 4.71%
c1cc2c3c(cccc3c1)C(N1CCCCCC1)=N2,"inconclusive: 0.082 µM [falling, full curve, poor fit]",
CCc1ccc(OCC(=O)NC(=S)Nc2ccc(C(=O)O)cc2)cc1,,inconclusive: -18.3%
COc1cc(S(=O)(=O)N2CCOCC2)ccc1NC(=O)CSc1n[nH]c(=O)[nH]c1=O,"inconclusive: 2.06 µM [cytotoxic, full curve, poor fit]",
C=CCNC(=O)C(C)N1c2cccc3cccc(c23)S1(=O)=O (stereo not given),,inconclusive: 87.6%
CN1C(=O)/C(=C/c2ccc(OCc3cccc(F)c3)cc2)NC1=S,,inconclusive: -34.6%
COc1cc(O)sc1C=Nc1ccc(Cl)cc1,,inconclusive: 7.49%
Cc1ccc(/C=N/NC(=O)Cn2cnc3ccccc32)o1,"inconclusive: 8.2 µM [activator, partial curve]",
CCN(CC)CCN(C(=O)c1ccc(C(=O)c2ccccc2)cc1)c1nc2cc3c(cc2s1)OCO3,,inconclusive: 21.1%
Cc1ccc(/C=C/C(=O)Nc2sc(C)c(C)c2C(=O)OC(C)C)o1,,inactive
CCc1nnc(NC(=O)c2ccc(S(=O)(=O)N(CC)Cc3ccccc3)cc2)o1,,inconclusive: -35%
CN(C)c1ccc(C(=O)/C=C/c2ccc(Br)cc2)cc1,,inconclusive: 12.5%
O=C(O)C1C2C=CC(O2)C1C(=O)Nc1ccc(S(=O)(=O)N2CCc3ccccc32)cc1 (stereo not given),,inactive
CC(C)OP(=O)(OC(C)C)C(O)c1ccc2c(c1)OCO2 (stereo not given),,inconclusive: -16.4%
Cc1cc(C)cc(SCc2noc(C(=O)NC(C)C)c2C(=O)NC(C)C)c1,"inconclusive: 29.1 µM [activator, single point]",
Cc1ccc2c(c1)N(C(=O)CCC(=O)NCCCN1CCN(C)CC1)CCO2,,inconclusive: 12.9%
O=C(O)c1nn(CC(=O)N2CCN(c3ccccc3)CC2)c(=O)c2ccccc12,"inconclusive: 29.1 µM [activator, single point]",
Fc1ccc(-[n+]2nc(Nc3ccccc3)sc2-c2c(Cl)cccc2Cl)cc1,"inconclusive: 29.1 µM [falling, partial curve, poor fit]",
NC(=O)[C@@H]1CCCN1Cc1c(C(=O)N2CCN(C3CCCCC3)CC2)nc2ccccn12,,inconclusive: -16.3%
COc1ccc(-c2cc(=O)oc3c(C)c(OC(C)C(C)=O)ccc23)cc1 (stereo not given),,inconclusive: -46.1%
Cc1ccc(C)c(C(=O)Cn2ncc(Cl)c(Cl)c2=O)c1,"inconclusive: 20.6 µM [activator, partial curve]",
CCCCCCn1c(=O)c(-c2nc3ccccc3c(=O)[nH]2)c(O)c2ccccc21,,inconclusive: 8.51%
Cc1ccn(CC(=O)N2CCCC(N3CCN(c4cccc(Cl)c4)CC3)C2)n1 (stereo not given),,inactive
